Results reported in PubChem BioAssay AID504444 (National Center for Advancing Translational Sciences (NCATS), 2011).
The campaign covered roughly 360,000 compounds. About 7,500 (2.1%) were called active. The shares of active, inactive and inconclusive entries below differ from those in the screen. Calls follow the shape of the dose curve; as a rule, active = well fitted inhibition curve with a large enough effect; inconclusive = small, poorly fitted or top-dose-only effect, or effect the other way; inactive = flat fitted curve, though single readings scatter. Potencies of inconclusive entries are doubtful fits and often do not repeat.

Assay: Nrf2 qHTS screen for inhibitors; also: nearly all actives have a fitted effect of over 60% in size
Settings: A549 ARE-Fluc reporter, luciferase luminescence, 18-24 h; series mostly up to 46 µM
Summary of the method: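 Quantitative HTS in A549 cells stably bearing an antioxidant response element-firefly luciferase construct. Inhibition of Nrf2-driven transcription was scored by luminescence after 18-24 h of compound exposure at 37 °C.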
Potency is read from the fitted curve at half-maximal effect.

Row | Compound | Potency
1 | Cc1ccc(NC(=O)CSc2ccc(-c3ccco3)nn2)cc1 | inconclusive: 13 µM [falling, partial curve]
2 | Cc1cc(N/N=C2/CCCc3ccccc32)nc2ccccc12 | inconclusive: 25.9 µM [activator, single point]
3 | Cn1c(Cl)c(C(=O)Nc2ccccc2)c2ccccc21 | inconclusive: 25.9 µM [activator, single point]
4 | CCOC(=O)c1c(-c2ccc(C)cc2)csc1/N=C(\C)C1=C(O)c2ccccc2C1=O | inconclusive: 13 µM [falling, partial curve, poor fit]
5 | CCN(CC)c1ccc(/C=N/NC(=O)C2CC2)cc1 | inconclusive: 11.6 µM [activator, partial curve]
6 | CN(C)c1ccc(/C=N/NC(=O)COc2ccccc2)cc1 | inactive
7 | O=C(c1cc2cc(F)ccc2[nH]1)N1CCN(Cc2ccc3c(c2)OCO3)CC1 | inconclusive: 14.6 µM [falling, partial curve, poor fit]
8 | CCC(C)c1ccc(OCc2ccc(C(=O)OC)o2)cc1 (stereo not drawn) | inconclusive: 1.03 µM [activator, partial curve]
9 | CCn1cc(C(=O)NCc2ccco2)c(=O)c2cc(S(=O)(=O)N3CC(C)CC(C)C3)ccc21 (stereo not drawn) | inconclusive: 2.59 µM [falling, partial curve, poor fit]
10 | O=C(NNC(=O)c1cc2ccccc2oc1=O)c1ccccc1 | inconclusive: 18.4 µM [activator, partial curve]
11 | COc1cccc(-c2nc(CS(=O)(=O)CC(=O)NC3CCCc4ccccc43)c(C)o2)c1 (stereo not drawn) | inconclusive: 20.6 µM [falling, single point]
12 | COc1ccccc1NCC(=O)N/N=C/c1c(O)ccc2ccccc12 | inconclusive: 20.6 µM [falling, single point]
13 | O=C(COc1ccc(F)cc1Cl)Nc1cccc(S(=O)(=O)N2CCCCCC2)c1 | inconclusive: 29.1 µM [falling, single point]
14 | CC(=O)c1ccc(N(C(=O)Cn2nnc3ccccc32)C(C(=O)NCc2ccccc2)c2ccccn2)cc1 (stereo not drawn) | inconclusive: 16.4 µM [activator, partial curve, poor fit]
15 | Cc1ccc(-c2nn(C(C)(C)C)c3ncnc(NS(=O)(=O)c4ccc([N+](=O)[O-])cc4)c23)cc1 | inconclusive: 23.1 µM [falling, partial curve]
16 | COc1ccc(CC(=O)Nc2ccc(S(=O)(=O)N3CCOCC3)cc2)cc1 | inconclusive: 23.1 µM [falling, partial curve, poor fit]
17 | O=C(Nc1sc2c(c1C(=O)NCc1ccco1)CCCC2)c1cc(=O)c2cc(Cl)ccc2o1 | inactive
18 | Cc1ccc(OCCOc2cccc(/C=N/NC(N)=O)c2)cc1 | inconclusive: 10.3 µM [activator, partial curve]
19 | CCOC(=O)CC(=O)Nc1ncnc2c1C(c1ccccc1)c1c(ccc3ccccc13)O2 (stereo not drawn) | inconclusive: 23.1 µM [falling, single point]

Row | Compound | Potency
20 | CCc1ccccc1NC(=O)CSc1nnc(CCNC(=O)OC(C)(C)C)o1 | inconclusive: 2.31 µM [activator, full curve, poor fit]
21 | COC(=O)c1ccc(C2NC(=S)N(c3ccccc3)C(C)=C2C(=O)Nc2ccccc2OC)cc1 (stereo not drawn) | inconclusive: 32.6 µM [falling, single point]
22 | Cc1ccc(S(=O)(=O)N2CCN(C(=O)c3cccs3)CC2)c(C)c1 | inconclusive: 20.6 µM [falling, partial curve]
23 | C[C@H](CO)N1C[C@H](C)[C@@H](CN(C)Cc2ccc(-c3ccccc3)cc2)Oc2c(NS(=O)(=O)c3ccccc3)cccc2C1=O | inconclusive: 11.6 µM [falling, partial curve, poor fit]
24 | CC(=O)Nc1ccc(-c2sc(Nc3cccc4ccccc34)n[n+]2-c2ccccc2)cc1 | inconclusive: 16.4 µM [activator, partial curve]
25 | COc1ccc(NC(=O)C2CCCN(S(=O)(=O)c3c(C)[nH]c(=O)[nH]c3=O)C2)cc1OC (stereo not drawn) | inactive
26 | Cc1ccc(C)c(-c2nn(-c3cc(N4CCN(CCO)CC4)ccc3[N+](=O)[O-])c(=O)c3ccccc23)c1 | inconclusive: 18.4 µM [falling, single point]
27 | CCn1c(=O)c2cc(C(=O)NCc3cc(OC)ccc3OC)sc2c2ccccc21 | inactive
28 | COc1ccc(-n2c(=S)[nH]c3cc(C(=O)N4CCN(c5ccccc5)CC4)ccc3c2=O)cc1 | inconclusive: 13 µM [falling, partial curve, poor fit]
29 | O=c1c2ccccc2nc(N/N=C/c2c(O)ccc3ccccc23)n1O | active: 6.51 µM
30 | Cc1cc(C)nc(N2CCCC(C(=O)Nc3ccc4nc(C)c(C)nc4c3)C2)n1 (stereo not drawn) | inconclusive: 13 µM [falling, partial curve, poor fit]
31 | c1cncc(N=c2scc(-c3cccc4ccccc34)n2CCCn2ccnc2)c1 | inactive
32 | Cc1ccc(S(=O)(=O)n2ccc(-c3cccc(OCc4c(F)cccc4Cl)c3)n2)cc1 | inconclusive: 6.51 µM [falling, single point]
33 | c1ccc(CCNc2ncnc3c2cnn3-c2ccccc2)cc1 | inconclusive: 0.461 µM [activator, partial curve, poor fit]
34 | COC(=O)c1ccc(/C=N/NC(=O)c2cccc(F)c2)cc1 | inconclusive: 6.51 µM [activator, single point]
35 | COc1ccc(C(=O)N2CCN(S(=O)(=O)c3ccc(Br)cc3)CC2)cc1 | inactive
36 | CCCCN(CCCC)C(=S)NC(=O)c1ccccc1Cl | inconclusive: 29.1 µM [falling, single point]
37 | COc1ccc2[nH]c3c(c2c1)CCN(C(=O)CCC1CCCC1)C3c1ccc(F)cc1 (stereo not drawn) | inconclusive: 0.58 µM [activator, full curve]
38 | CC(C)c1cc(C(C)C)c(S(=O)(=O)N2c3ccccc3[C@@]3(Br)C[C@H]4C(=O)N[C@@H](Cc5ccccc5)C(=O)N4[C@@H]23)c(C(C)C)c1 | inconclusive: 29.1 µM [falling, single point]

8 entries already listed, ordered by SMILES length, ascending.
Row | Compound | Potency
36 | CCCCN(CCCC)C(=S)NC(=O)c1ccccc1Cl | inconclusive: 29.1 µM [falling, single point]
3 | Cn1c(Cl)c(C(=O)Nc2ccccc2)c2ccccc21 | inconclusive: 25.9 µM [activator, single point]
10 | O=C(NNC(=O)c1cc2ccccc2oc1=O)c1ccccc1 | inconclusive: 18.4 µM [activator, partial curve]
13 | O=C(COc1ccc(F)cc1Cl)Nc1cccc(S(=O)(=O)N2CCCCCC2)c1 | inconclusive: 29.1 µM [falling, single point]
32 | Cc1ccc(S(=O)(=O)n2ccc(-c3cccc(OCc4c(F)cccc4Cl)c3)n2)cc1 | inconclusive: 6.51 µM [falling, single point]
4 | CCOC(=O)c1c(-c2ccc(C)cc2)csc1/N=C(\C)C1=C(O)c2ccccc2C1=O | inconclusive: 13 µM [falling, partial curve, poor fit]
9 | CCn1cc(C(=O)NCc2ccco2)c(=O)c2cc(S(=O)(=O)N3CC(C)CC(C)C3)ccc21 (stereo not drawn) | inconclusive: 2.59 µM [falling, partial curve, poor fit]
15 | Cc1ccc(-c2nn(C(C)(C)C)c3ncnc(NS(=O)(=O)c4ccc([N+](=O)[O-])cc4)c23)cc1 | inconclusive: 23.1 µM [falling, partial curve]
